Test results taken from patent publication US20050182002A1, “Agents which interact with a serotonin transporter for the treatment of cancer” (priority 2002, published 2005).
Where two headings read alike, the source gives them in different places.

Test system: L3055 BL cells
Experiment: DNA synthesis by [3H]-thymidine incorporation in L3055 cells
Assay type: cell-based
Description: DNA synthesis was determined by measuring ^3H-thymidine ([^3H]Tdr; Amersham, UK) incorporation into cellular DNA. Cells were cultured in 200 μL of supplemented medium at densities and for times indicated below in flat-bottomed, 96-well tissue culture plates (Becton Dickinson, Oxford, U K) then pulsed for the final 4 h with 50 μl of 10 μCi/ml [^3H]Tdr before harvesting on a Skatron cell harvester (Helis Bio Ltd, Newmarket, UK).

SMILES	influence of pre-treatment on 5-HT-dependent inhibition of DNA synthesis (in words)	influence of pre-treatment on 5-HT-dependent inhibition of DNA synthesis (in words) (cells pre-treated with agent before 5-HT)
CC[C@@H](CO)NC(=O)[C@@H]1C=C2c3cccc4c3c(cn4C)C[C@H]2N(C)C1 [methysergide]	failed to influence the ability of 5-HT to inhibit DNA synthesis	
CN1C2CCCC1CC(NC(=O)c1nn(C)c3ccccc13)C2 (centres unmarked) [granisetron]		failed to influence the ability of 5-HT to inhibit DNA synthesis
